System: HepG2 cell line contaminated with mycoplasma
Test: Co-treatment with amphidinol 3 (AM3) and cyclic lipopeptide/antibiotic, PCR with mycoplasma diagnosis kit
Type: cell-based
Protocol: The cell lines NIH3T3, HepG2, and Raw 264.7, which were confirmed to be contaminated with mycoplasma, were each inoculated at a concentration of 1×10^6 cells on a T-75 culture flask (NUNC, Cat. No. 156367). DMEM (GIBCO BRL, Cat. No. 12800-058) containing 10% or less of serum (GIBCO BRL, Cat. […] After culturing for 3 days, the obtained cells were treated with Trypsin-EDTA to obtain a cell solution. The resulting cells (1×10^6 cells) which was treated with amphidinol 3 (AM3) were inoculated. DMEM (GIBCO BRL, Cat. No. 12800-058) containing 10% or less of serum (GIBCO BRL, Cat. […] After culturing for 3 days, the cells were harvested. PCR was performed thereon with a mycoplasma diagnosis kit (Promokine, Germany; Cellsafe Co., Ltd., Korea) according to the enclosed protocol. The resulting PCR products were electrophoresed on a 1% agarose gel to measure the mycoplasma contamination.
Mycoplasma contamination was measured in the same manner as in (2) except that HepG2 was used as a cell line contaminated with mycoplasma; and instead of the treatment with amphidinol 3 (AM3), 5 μg/ml and 10 μg/ml of amphidinol 3 (AM3) was used together with surfactin (10 μM or 20 μM), ciprofloxacin (1 μg/ml or 5 μg/ml), or rifampicin (0.5 μg/ml or 1 μg/ml).

## O=C(O)c1cn(C2CC2)c2cc(N3CCNCC3)c(F)cc2c1=O [ciprofloxacin]
Used alone, surfactin 10 or 20 μM, ciprofloxacin 1 or 5 μg/ml, rifampicin 0.5 or 1 μg/ml
  mycoplasma contamination: mycoplasma contamination remained
Used together with amphidinol 3 (AM3) 5 and 10 μg/ml
  mycoplasma contamination: completely removed
